Taken from: PubChem BioAssay AID1259405 (NCATS, 2018)
In all, the deposit lists about 50,000 reagents; this is a random part of them. About 4,000 of all reagents (8%) count as active. 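Mouse siRNA library applied to hamster cells; one well for each siRNA.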 The numbers tell different reagents against one gene apart.

Test: 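Mouse-designed siRNAs used to find CHO productivity engineering targets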 (primary screen)
Cells: Chinese hamster CHO-K1 ovary cells with stable secreted eGFP expression
Reagents: single siRNA against mouse genes, 0.8 pmol siRNA per well (2 µl of 400 nM stock)
Time to read-out: 3 days
Read-out: 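Per-well intracellular GFP measured by laser scanning cytometry, plus viability from ATP luminescence, each relative to plate median of non-targeting control wells, in %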
Direction: GFP, % of control: higher = more GFP per well, higher productivity; viability (ATP), % of control: higher = more viable cells (more ATP)
Rule for the call: 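a knock-down is called active if GFP reaches 120% or more of non-targeting control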

no.	target gene	siRNA no.	GFP, % of control	viability (ATP), % of control	outcome
1	Ctbp2 (C-terminal binding protein 2)	1	106	96.1	inactive
2	Ctbp2 (C-terminal binding protein 2)	2	72.6	61.9	inactive
3	Ctbp2 (C-terminal binding protein 2)	3	177	154	active
4	Abhd14a (abhydrolase domain containing 14A)	1	98.5	103	inactive
5	Abhd14a (abhydrolase domain containing 14A)	2	74.9	81.1	inactive
6	Abhd14a (abhydrolase domain containing 14A)	3	32.4	43	inactive
7	Erbb2 (erb-b2 receptor tyrosine kinase 2)	1	43.4	50.2	inactive
8	Erbb2 (erb-b2 receptor tyrosine kinase 2)	2	39.2	53.9	inactive
9	Erbb2 (erb-b2 receptor tyrosine kinase 2)	3	72.3	76.6	inactive
10	Gm9734 (predicted gene 9734)	1	88.5	82	inactive
11	Gm9734 (predicted gene 9734)	2	41.5	36.9	inactive
12	Gm9734 (predicted gene 9734)	3	74.4	58.3	inactive
13	Rad51b (RAD51 paralog B)	1	33.7	29.6	inactive
14	Rad51b (RAD51 paralog B)	2	61.2	84.9	inactive
15	Rad51b (RAD51 paralog B)	3	64.9	60.3	inactive
16	Gpatch11 (G patch domain containing 11)	1	59.1	47.8	inactive
17	Gpatch11 (G patch domain containing 11)	2	98.2	76.9	inactive
18	Gpatch11 (G patch domain containing 11)	3	69.1	55.5	inactive
19	Cd80 (CD80 antigen)	1	63.5	62.1	inactive
20	Cd80 (CD80 antigen)	2	92.6	76.1	inactive
21	Cd80 (CD80 antigen)	3	64.8	68.2	inactive
22	Cdh2 (cadherin 2)	1	61.5	64.5	inactive
23	Cdh2 (cadherin 2)	2	104	62.8	inactive
24	Cdh2 (cadherin 2)	3	112	56.6	inactive
25	Tmem164 (transmembrane protein 164)	1	101	39	inactive
26	Tmem164 (transmembrane protein 164)	2	54.8	77.2	inactive
27	Tmem164 (transmembrane protein 164)	3	76.5	87.8	inactive
28	Tcp11l2 (t-complex 11 (mouse) like 2)	1	94.4	105	inactive
29	Tcp11l2 (t-complex 11 (mouse) like 2)	2	60.9	68.3	inactive
30	Tcp11l2 (t-complex 11 (mouse) like 2)	3	106	38.2	inactive
31	Hdac3 (histone deacetylase 3)	1	82.1	89.1	inactive
32	Hdac3 (histone deacetylase 3)	2	138	123	active
33	Cetn2 (centrin 2)	1	51.7	70.9	inactive
34	Cetn2 (centrin 2)	2	78.4	82.8	inactive
35	Mstn (myostatin)	1	89.5	66.9	inactive
36	Mstn (myostatin)	2	131	108	active
37	Mstn (myostatin)	3	86.2	103	inactive
38	Guca1a (guanylate cyclase activator 1a (retina))	1	168	101	active
39	Guca1a (guanylate cyclase activator 1a (retina))	2	98.6	87.8	inactive
40	Guca1a (guanylate cyclase activator 1a (retina))	3	131	63.5	active
41	Hao1 (hydroxyacid oxidase 1, liver)	1	110	96.6	inactive
42	Hao1 (hydroxyacid oxidase 1, liver)	2	101	96.5	inactive
43	Hao1 (hydroxyacid oxidase 1, liver)	3	88.5	62.2	inactive
44	Akr1b8 (aldo-keto reductase family 1, member B8)	1	45.6	51.4	inactive
45	Akr1b8 (aldo-keto reductase family 1, member B8)	2	72.6	73.8	inactive
46	Akr1b8 (aldo-keto reductase family 1, member B8)	3	80.6	68.2	inactive

16 neighbouring entries from above, for reference:
no.	target gene	siRNA no.	GFP, % of control	viability (ATP), % of control	outcome
31	Hdac3 (histone deacetylase 3)	1	82.1	89.1	inactive
32	Hdac3 (histone deacetylase 3)	2	138	123	active
33	Cetn2 (centrin 2)	1	51.7	70.9	inactive
34	Cetn2 (centrin 2)	2	78.4	82.8	inactive
35	Mstn (myostatin)	1	89.5	66.9	inactive
36	Mstn (myostatin)	2	131	108	active
37	Mstn (myostatin)	3	86.2	103	inactive
38	Guca1a (guanylate cyclase activator 1a (retina))	1	168	101	active
39	Guca1a (guanylate cyclase activator 1a (retina))	2	98.6	87.8	inactive
40	Guca1a (guanylate cyclase activator 1a (retina))	3	131	63.5	active
41	Hao1 (hydroxyacid oxidase 1, liver)	1	110	96.6	inactive
42	Hao1 (hydroxyacid oxidase 1, liver)	2	101	96.5	inactive
43	Hao1 (hydroxyacid oxidase 1, liver)	3	88.5	62.2	inactive
44	Akr1b8 (aldo-keto reductase family 1, member B8)	1	45.6	51.4	inactive
45	Akr1b8 (aldo-keto reductase family 1, member B8)	2	72.6	73.8	inactive
46	Akr1b8 (aldo-keto reductase family 1, member B8)	3	80.6	68.2	inactive

More reagents:
no.	target gene	siRNA no.	GFP, % of control	viability (ATP), % of control	outcome
47	Rad50 (RAD50 double strand break repair protein)	1	92	96.8	inactive
48	Rad50 (RAD50 double strand break repair protein)	2	78	69	inactive
49	Rad50 (RAD50 double strand break repair protein)	3	81.1	86.2	inactive
50	Cyp2c50 (cytochrome P450, family 2, subfamily c, polypeptide 50)	1	95.3	62	inactive
51	Cyp2c50 (cytochrome P450, family 2, subfamily c, polypeptide 50)	2	71.1	83.1	inactive
52	Cyp2c50 (cytochrome P450, family 2, subfamily c, polypeptide 50)	3	77.7	72.8	inactive
53	Fgf3 (fibroblast growth factor 3)	1	83.6	46.3	inactive
54	Fgf3 (fibroblast growth factor 3)	2	73.4	30.7	inactive
55	Fgf3 (fibroblast growth factor 3)	3	73.5	57.8	inactive
56	Or1e35 (olfactory receptor family 1 subfamily E member 35)	1	60	62.2	inactive
57	Or1e35 (olfactory receptor family 1 subfamily E member 35)	2	62.6	61.5	inactive
58	Or1e35 (olfactory receptor family 1 subfamily E member 35)	3	89.5	107	inactive
59	Pspc1 (paraspeckle protein 1)	1	29.4	51.1	inactive
60	Pspc1 (paraspeckle protein 1)	2	144	64.4	active
61	Pspc1 (paraspeckle protein 1)	3	148	117	active
62	Tcstv7a (Tcstv family member 7A)	1	99.8	75.6	inactive
63	Tcstv7a (Tcstv family member 7A)	2	82.7	67.3	inactive
64	Tcstv7a (Tcstv family member 7A)	3	68.8	78.1	inactive
65	Tdpoz3 (TD and POZ domain containing 3)	1	122	124	active
66	Tdpoz3 (TD and POZ domain containing 3)	2	138	82.7	active
67	Tdpoz3 (TD and POZ domain containing 3)	3	109	76.7	inactive
68	Cst9 (cystatin 9)	1	42.7	23.1	inactive
69	Cst9 (cystatin 9)	2	67.7	63.3	inactive
70	Cst9 (cystatin 9)	3	88.7	88.8	inactive
71	Pi16 (peptidase inhibitor 16)	1	82.2	63.5	inactive
72	Pi16 (peptidase inhibitor 16)	2	116	45.6	inactive
73	Pi16 (peptidase inhibitor 16)	3	84	91	inactive
74	Thap11 (THAP domain containing 11)	1	116	97.2	inactive
75	Thap11 (THAP domain containing 11)	2	79.5	97.9	inactive
76	Thap11 (THAP domain containing 11)	3	96	106	inactive
77	Pter (phosphotriesterase related)	1	91.3	103	inactive
78	Pter (phosphotriesterase related)	2	93.1	79.7	inactive
79	Pter (phosphotriesterase related)	3	24.6	41.1	inactive
80	Zfp37 (zinc finger protein 37)	1	95.1	67.2	inactive
81	Zfp37 (zinc finger protein 37)	2	81.6	92.3	inactive
82	Zfp37 (zinc finger protein 37)	3	97.8	116	inactive
83	Wdr55 (WD repeat domain 55)	1	51.1	55.9	inactive
84	Wdr55 (WD repeat domain 55)	2	48.6	65.9	inactive
85	Wdr55 (WD repeat domain 55)	3	73.3	72.4	inactive
86	Csnk1g2 (casein kinase 1, gamma 2)	1	60.5	64.4	inactive
87	H2-M10.4 (histocompatibility 2, M region locus 10.4)	1	33	16.7	inactive
88	H2-M10.4 (histocompatibility 2, M region locus 10.4)	2	69.3	60.1	inactive
89	H2-M10.4 (histocompatibility 2, M region locus 10.4)	3	121	74.6	active
90	Sparcl1 (SPARC-like 1)	1	84.2	74.4	inactive
91	Sparcl1 (SPARC-like 1)	2	107	94.9	inactive
92	Sparcl1 (SPARC-like 1)	3	59.1	70.4	inactive
93	Agtr1a (angiotensin II receptor, type 1a)	1	156	78	active
94	Agtr1a (angiotensin II receptor, type 1a)	2	68.4	54	inactive
95	Agtr1a (angiotensin II receptor, type 1a)	3	70.1	102	inactive
96	E130018O15Rik (RIKEN cDNA E130018O15 gene)	1	86.1	106	inactive
97	E130018O15Rik (RIKEN cDNA E130018O15 gene)	2	86.5	73.3	inactive
98	E130018O15Rik (RIKEN cDNA E130018O15 gene)	3	161	72	active
99	5730522E02Rik (RIKEN cDNA 5730522E02 gene)	1	84.7	80.2	inactive
100	5730522E02Rik (RIKEN cDNA 5730522E02 gene)	2	73.8	75.8	inactive
101	5730522E02Rik (RIKEN cDNA 5730522E02 gene)	3	121	111	active
102	Atf7 (activating transcription factor 7)	1	72.4	58	inactive
103	Atf7 (activating transcription factor 7)	2	84.6	78.4	inactive
104	Rab19 (RAB19, member RAS oncogene family)	1	59.7	37.6	inactive
105	Rab19 (RAB19, member RAS oncogene family)	2	37	45.4	inactive
106	Rab19 (RAB19, member RAS oncogene family)	3	66.7	69.4	inactive
107	Tmem150c (transmembrane protein 150C)	1	24.7	74.8	inactive
108	Tmem150c (transmembrane protein 150C)	2	68.6	77.3	inactive
109	Tmem150c (transmembrane protein 150C)	3	189	160	active
